This is an account of results in publication doi:10.1101/241331.

By UniProt entry, the sequences of proteins in these tests, tags left out.
UniProt Q8C7M3: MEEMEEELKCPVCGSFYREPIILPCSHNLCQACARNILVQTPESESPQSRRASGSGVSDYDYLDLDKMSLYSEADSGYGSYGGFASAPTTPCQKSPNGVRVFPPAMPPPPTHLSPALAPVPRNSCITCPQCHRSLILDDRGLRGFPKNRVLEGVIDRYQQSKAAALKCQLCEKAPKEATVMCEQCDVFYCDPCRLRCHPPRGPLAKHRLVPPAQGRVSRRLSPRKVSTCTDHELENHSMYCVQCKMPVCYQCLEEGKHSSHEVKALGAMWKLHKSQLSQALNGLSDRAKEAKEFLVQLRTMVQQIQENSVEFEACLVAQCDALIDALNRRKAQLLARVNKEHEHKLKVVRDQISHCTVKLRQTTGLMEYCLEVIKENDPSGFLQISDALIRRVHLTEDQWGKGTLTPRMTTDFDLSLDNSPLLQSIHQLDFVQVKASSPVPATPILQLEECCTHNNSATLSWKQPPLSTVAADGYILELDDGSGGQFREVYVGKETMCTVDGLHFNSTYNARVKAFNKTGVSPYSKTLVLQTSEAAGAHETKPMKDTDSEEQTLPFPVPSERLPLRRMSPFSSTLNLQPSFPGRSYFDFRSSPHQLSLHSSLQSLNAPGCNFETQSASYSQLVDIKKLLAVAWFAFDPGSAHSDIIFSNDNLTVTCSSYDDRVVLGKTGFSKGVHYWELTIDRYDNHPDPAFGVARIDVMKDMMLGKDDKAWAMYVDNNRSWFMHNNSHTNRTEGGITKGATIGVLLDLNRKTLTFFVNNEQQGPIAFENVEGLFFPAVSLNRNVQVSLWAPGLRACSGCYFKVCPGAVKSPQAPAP

The target of the experiment is endogenous TRIM9 (mouse embryonic cortical neurons) (mouse (endogenous in embryonic cortical neurons)) (UniProt Q8C7M3). The experiment in a line: co-IP.

No constants are given. Whether binding was seen depends on the method and setting. Binding seen in cells or lysates may run through a third protein. Some binding calls cover weakened binding; strength is not graded here.

B1: endogenous TRIM67 (mouse embryonic cortical neurons) (protein, UniProt Q505D9 1-768)
chain: MEEELKCPVCGSLFREPIILPCSHNVCLPCARTIAVQTPDGEQHLPPPLLLSRGAAAAATPPDQDAAAGATSGGAGANTAGGLGGGATGGGDHADKLSLYSETDSGYGSYTPSLKSPNGVRVLPMVPAPPGSSAAAARGAACSSLCSSSSSITCPQCHRSASLDHRGLRGFQRNRLLEGIVQRYQQGRGVVPGAAAAPAVAICQLCDRTPPEPAATLCEQCDVLYCATCQLKCHPSRGPFAKHRLVQPPPPPTPPEATPAVTGTSTASSAGGCRSPGGAGASAPRKFPTCPEHEMENYSMYCVSCRSPVCYMCLEEGRHSKHEVKPLGATWKQHKAQLSQALNGVSDKAKEAKEFLVQLKNILQQIQENGLDYEACLVAQCDALVDALTRQKAKLLTKVTKEREHKLKMVWDQINHCTLKLRQSTGLMEYCLEVIKEDDPSGFLQISDALIKRVQTSQEQWVKGALEPKVSAEFDLTLDSEPLLQAIHQLDFVQMKLPPVPLLQLEKCCTRNNSVTLAWRTPPFTHSPAEGYILELDDGDGGQFREVYVGKETLCTIDGLHFNSTYNARVKAFNSSGVGPYSKTVVLQTSDVAWFTFDPNSGHRDIILSNDNQTATCSSYDDRVVLGTAAFSKGVHYWELHVDRYDNHPDPAFGVARASVVKDMMLGKDDKAWAMYVDNNRSWFMHCNSHTNRTEGGVCKGATVGVLLDLNKHTLTFFINGQQQGPTAFSHVDGVFMPALSLNRNVQVTLHTGLEVPTNLGRPKLSGN
Turning to B1, the binding entry is listed as “binds”.
